According to the supplement of paper PMC10331698:
± gives the standard deviation of the averaged measurements. Most entries show no effect beyond the scatter of the controls.

Tests used:
Assay in all cases: level (log10 ratio to DMSO vehicle control); higher = higher biomarker level / cell amount than vehicle control
[1] = compound: C=C(C)C(=O)OCC(F)(F)C(F)(F)C(F)(F)C(F)(F)C(F)(F)C(F)(F)C(F)(F)F; conditions: in DMSO
Description: (§1)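 BioMAP Diversity Plus panel of 12 human primary cell co-culture systems (3C, 4H, LPS, SAg, BT, BF4T, BE3C, CASM3C, HDF3CGF, KF3CT, MyoF, Mphg). Compounds were added 1 h before stimulation and left for 24 h (MyoF 48 h; BT 72 h for soluble read-outs or 6 d for IgG). Biomarkers were read by ELISA, cytotoxicity by SRB, PBMC viability and proliferation by Alamar Blue. Each well value was divided by the mean of 8 DMSO control wells on the same plate and log10 transformed; duplicate blinded samples were tested at 4 concentrations.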

[2] = compound: C=CC(=O)OCC(F)(F)C(F)(F)C(F)(F)C(F)(F)C(F)(F)C(F)(F)C(F)(F)F [1H,1H-Perfluorooctyl acrylate]; conditions: 2200 nM; in DMSO
Description: as §1

[3] = compound: C=CC(F)(F)C(F)(F)C(F)(F)C(F)(F)C(F)(F)C(F)(F)C(F)(F)C(F)(F)C=C [1,8-Divinylperfluorooctane]; conditions: in DMSO
Description: as §1

[4] = compound: COC(=O)C(F)(F)C(F)(F)OC(F)(C(F)(F)F)C(F)(F)OC(F)=C(F)F [Methyl perfluoro(3-(1-ethenyloxypropan-2-yloxy)propanoate)]; conditions: in DMSO
Description: as §1

[5] = compound: CO[Si](C)(CCC(F)(F)C(F)(F)C(F)(F)C(F)(F)C(F)(F)C(F)(F)F)OC [Dimethoxymethyl((perfluorohexyl)ethyl)silane]; conditions: in DMSO
Description: as §1

[6] = compound: FC(F)(F)C(F)(F)C(F)(F)CC1CO1 [1H,1H-Heptafluorobutyl epoxide]; conditions: 2200 nM; in DMSO
Description: as §1

Heptafluorobutyl iodide = compound: FC(F)(F)C(F)(F)C(F)(F)CI [Heptafluorobutyl iodide]; conditions: 2200 nM; in DMSO
Description: as §1

[7] = compound: NC(=O)C(F)(F)C(F)(F)C(F)(F)C(F)F; conditions: in DMSO
Description: as §1

Pentafluoropropionamide = compound: NC(=O)C(F)(F)C(F)(F)F [Pentafluoropropionamide]; conditions: 2200 nM; in DMSO
Description: as §1

[8] = compound: NS(=O)(=O)C(F)(F)C(F)(F)C(F)(F)C(F)(F)C(F)(F)C(F)(F)C(F)(F)C(F)(F)F [Perfluorooctanesulfonamide]; conditions: in DMSO
Description: as §1

[9] = compound: O=C(O)C(F)(F)C(F)(F)C(F)F [4H-Perfluorobutanoic acid]; conditions: in DMSO
Description: as §1

[10] = compound: O=P(O)(O)CCC(F)(F)C(F)(F)C(F)(F)C(F)(F)C(F)(F)C(F)(F)F [2-(Perfluorohexyl)ethylphosphonic acid]; conditions: 2200 nM; in DMSO
Description: as §1

[11] = compound: O=S(=O)(F)C(F)(F)C(F)(F)C(F)(F)C(F)(F)C(F)(F)C(F)(F)C(F)(F)C(F)(F)F [Perfluorooctanesulfonyl fluoride]; conditions: 2200 nM; in DMSO
Description: as §1

[12] = compound: O=S(=O)(O)C(F)(F)C(F)(F)C(F)(F)C(F)(F)C(F)(F)C(F)(F)C(F)(F)C(F)(F)F [Perfluorooctanesulfonic acid]; conditions: 2200 nM; in DMSO
Description: as §1

[13] = compound: O=S(=O)(O)C(F)(F)C(F)(F)C(F)(F)C(F)(F)C(F)(F)C(F)(F)C(F)(F)C(F)(F)F [Potassium perfluorooctanesulfonate]; conditions: 2200 nM; in DMSO
Description: as §1

[14] = compound: O=S(=O)(OCC(F)(F)F)C(F)(F)C(F)(F)C(F)(F)C(F)(F)F [2,2,2-Trifluoroethyl perfluorobutanesulfonate]; conditions: 2200 nM; in DMSO
Description: as §1

[15] = compound: OCC(F)(F)C(F)(F)C(F)(F)C(F)(F)C(F)(F)C(F)F [1H,1H,7H-Dodecafluoro-1-heptanol]; conditions: 2200 nM; in DMSO
Description: as §1

[16] = compound: OCCCCC(F)(F)C(F)(F)C(F)(F)C(F)(F)F [4:4 Fluorotelomer alcohol]; conditions: 2200 nM; in DMSO
Description: as §1

Test System | level (log10) ([1]; 740 nM) | level (log10) ([1]; 2200 nM) | level (log10) [2] | level (log10) ([3]; 740 nM) | level (log10) ([3]; 2200 nM) | level (log10) ([4]; 740 nM) | level (log10) ([4]; 2200 nM) | level (log10) ([5]; 740 nM) | level (log10) ([5]; 2200 nM) | level (log10) [6] | level (log10) (Heptafluorobutyl iodide) | level (log10) ([7]; 2200 nM) | level (log10) ([7]; 6700 nM) | level (log10) ([7]; 20000 nM) | level (log10) ([7]; 60000 nM) | level (log10) (Pentafluoropropionamide) | level (log10) ([8]; 2200 nM) | level (log10) ([8]; 6700 nM) | level (log10) ([8]; 20000 nM) | level (log10) ([9]; 2200 nM) | level (log10) ([9]; 6700 nM) | level (log10) ([9]; 20000 nM) | level (log10) ([9]; 60000 nM) | level (log10) [10] | level (log10) [11] | level (log10) [12] | level (log10) [13] | level (log10) [14] | level (log10) [15] | level (log10) [16]
HDF3CGF:CD106/VCAM-1 | -0.046 ± 0.051 | -0.0125 ± 0.0064 | -0.051 ± 0.072 | -0.0455 ± 0.032 | 0.0035 ± 0.0092 | -0.0645 ± 0.044 | -0.0695 ± 0.019 | -0.017 ± 0.042 | -0.01 ± 0.0042 | 0.0235 ± 0.005 | 0.0595 ± 0.0064 | -0.0345 ± 0.023 | -0.0285 ± 0.019 | -0.014 ± 0.024 | -0.04 ± 0.078 | -0.0415 ± 0.046 | -0.047 ± 0.078 | -0.147 ± 0.027 | -0.364 ± 0.023 | -0.0535 ± 0.026 | -0.0385 ± 0.018 | -0.0525 ± 0.022 | -0.0445 ± 0.096 | 0.0145 ± 0.018 | -0.0395 ± 0.056 | -0.0505 ± 0.015 | -0.0505 ± 0.0078 | -0.018 ± 0.0028 | 0.007 ± 0.0085 | -0.027 ± 0.09
BF4T:PAI-I | 0.0105 ± 0.053 | 0.013 ± 0.037 | 0.0135 ± 0.015 | 0.0015 ± 0.032 | -0.0005 ± 0.021 | 0.0055 ± 0.012 | -0.0075 ± 0.005 | 0.002 ± 0.04 | 0.002 ± 0.017 | -0.0075 ± 0.0092 | 0.0055 ± 0.025 | 0.001 ± 0.031 | -0.0005 ± 0.019 | -0.0095 ± 0.021 | 0.004 ± 0.0085 | 0.003 ± 0.0085 | 0.007 ± 0.0014 | -0.004 ± 0.011 | -0.038 ± 0.0099 | 0.0115 ± 0.0021 | 0.0025 ± 0.013 | -0.01 ± 0.0042 | 0.0105 ± 0.035 | 0.01 ± 0.024 | -0.0015 ± 0.012 | 0.007 ± 0.027 | 0.009 ± 0.028 | -0.001 ± 0.017 | 0.011 ± 0.0028 | 0.013 ± 0.02
SAg:CXCL9/MIG | 0.0025 ± 0.005 | -0.009 ± 0.0071 | 0 ± 0.011 | -0.018 | -0.0315 ± 0.0064 | -0.0055 ± 0.0092 | -0.0105 ± 0.011 | 0.0045 ± 0.016 | 0.014 ± 0.016 | -0.0105 ± 0.00071 | -0.004 ± 0.0042 | -0.0015 ± 0.026 | -0.0015 ± 0.0021 | -0.0055 ± 0.005 | 0.0105 ± 0.0021 | -0.0045 ± 0.005 | 0.0135 ± 0.022 | -0.002 ± 0.0042 | -0.0055 ± 0.011 | 0.0225 ± 0.018 | -0.0115 ± 0.00071 | -0.0035 ± 0.0078 | 0.0095 ± 0.016 | 0.004 ± 0.023 | 0.003 ± 0.0028 | 0.001 ± 0.014 | 0.006 ± 0.0057 | -0.005 ± 0.025 | 0.005 ± 0.0099 | 0.0075 ± 0.005
3C:CCL2/MCP-1 | 0.011 ± 0.024 | 0.0035 ± 0.0078 | 0.01 ± 0.033 | 0.0105 ± 0.028 | -0.0015 ± 0.029 | 0.0075 ± 0.0064 | 0.0015 ± 0.0035 | 0.0085 ± 0.043 | -0.006 ± 0.0028 | 0.006 ± 0.018 | 0.016 ± 0.023 | -0.013 ± 0.018 | -0.01 ± 0.013 | -0.0135 ± 0.011 | 0.015 ± 0.042 | 0.019 ± 0.025 | 0.025 ± 0.024 | -0.0015 ± 0.0021 | 0.085 ± 0.0057 | -0.0035 ± 0.015 | -0.02 ± 0.061 | -0.006 ± 0.05 | 0.0215 ± 0.03 | 0.0045 ± 0.023 | -0.001 ± 0.035 | 0.019 ± 0.028 | 0.022 ± 0.035 | 0.02 ± 0.05 | 0.0155 ± 0.019 | 0.022 ± 0.038
